Measured values taken from PubChem BioAssay AID485318 (Broad Institute, 2010).
Fewer than 10 of roughly 1,400 compounds were called active.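 How the source made its calls: active means fluorescence-lowering compounds whose fitted half-maximal concentration is at or below ten times the highest valid dose tested; inconclusive means flat curve at 30 to 70% inhibition, or poor fit; inactive means the rest.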 The list shows a part of the results.

Protein sequences, listed by entry. Tags and fused reporters are not part of them. Lines headed by an entry give the natural chain unless they say otherwise; changes in a name come on top.
UniProt O15379: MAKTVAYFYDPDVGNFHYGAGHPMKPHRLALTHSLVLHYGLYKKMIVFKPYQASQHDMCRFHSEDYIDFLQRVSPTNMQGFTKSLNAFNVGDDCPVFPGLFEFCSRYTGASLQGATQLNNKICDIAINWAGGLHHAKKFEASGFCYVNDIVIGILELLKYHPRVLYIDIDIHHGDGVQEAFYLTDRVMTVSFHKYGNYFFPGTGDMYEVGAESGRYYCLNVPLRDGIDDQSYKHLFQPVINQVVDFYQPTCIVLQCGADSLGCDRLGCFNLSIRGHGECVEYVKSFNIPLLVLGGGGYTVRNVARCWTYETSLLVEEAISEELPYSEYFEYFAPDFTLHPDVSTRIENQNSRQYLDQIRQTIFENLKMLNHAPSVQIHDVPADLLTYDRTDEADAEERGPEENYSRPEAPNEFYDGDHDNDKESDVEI

What follows are molecules tested against Histone deacetylase 3 (Homo sapiens) (UniProt O15379) (assay: HDAC3 deacetylase inhibitors, dose response, counter-screen for JMJD2C/GASC1 demethylase inhibitor project, biochemical, fluorescence, cherry-picked samples (AID 485318;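 further: enzyme preincubated with compound before substrate and trypsin were added; 0% = neutral control wells and -100% = SAHA positive control wells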)). Conditions: recombinant HDAC3, fluorogenic peptide/trypsin coupled; at 12 µM (top of the series).
For `Cc1cc(C(=O)OCc2nnc(-c3ccccc3)o2)c(C)n1-c1ccccc1`, the activity change, negative = inhibition was inactive: -0.284%.
`O=C(Oc1cccc2cccnc12)c1cccc(N2C(=O)C3C4CCC(C4)C3C2=O)c1` (configuration not stated) was tested, and the activity change, negative = inhibition was inactive: -0.368%.
For `CCc1ccc(-c2nc(CN3CCC(C(=O)NCc4ccc(F)cc4)CC3)c(C)o2)cc1`, the activity change, negative = inhibition was inactive: -0.3%.
With `Cc1ccc(S(=O)(=O)N2[C@@H](c3ccc(Br)cc3)C(C(=O)O)=C[C@H]2CC2CCCC2)cc1` the activity change, negative = inhibition was inactive: 0.0703%.
In the case of `CCC(=O)Nc1ccccc1Nc1cc(C#N)c(C#N)cc1[N+](=O)[O-]`, the activity change, negative = inhibition is reported as inactive: 0.0903%.
With `Nn1cc(-c2ccccc2)nc1SCC(=O)N1CCN(S(=O)(=O)c2ccc3ccccc3c2)CC1` the activity change, negative = inhibition was inactive: -0.203%.
With `COc1ccc(NC(=O)CCc2ccccc2)cc1NC(=O)c1ccco1` the activity change, negative = inhibition was inactive: 0.709%.
For `CC1(C)CC[C@]2(CO)CC[C@]3(C)C(=CCC4[C@@]5(C)CC[C@H](O)[C@@](C)(CO)C5CC[C@]43C)[C@@H]2C1` (some centres not stated), the activity change, negative = inhibition was inactive: -0.14%.
For `CCOC(=O)C1=C(C)NC(=O)NC1c1ccc(Br)s1` (configuration not stated), the activity change, negative = inhibition was inactive: -0.578%.
For `O=C(Cc1ccccc1Cl)NC1(O)C(=O)c2ccccc2C1=O`, the activity change, negative = inhibition was inactive: 0.909%.
In the case of `Cc1c(C2Nc3ccccc3NC3=C2C(=O)CC(C)(C)C3)cnn1C` (configuration not stated), the activity change, negative = inhibition is reported as inactive: 1.16%.
`C[C@H](CO)N1C[C@H](C)[C@H](CN(C)S(=O)(=O)c2ccccc2)Oc2c(NS(C)(=O)=O)cccc2C1=O` was tested, and the activity change, negative = inhibition was inactive: 0.0101%.
`CS(=O)(=O)N(CCc1ccccc1)CC(=O)NCc1ccc(Cl)cc1` was tested, and the activity change, negative = inhibition was inactive: -0.337%.
`CCCOC(=O)c1ccc(-c2ccc(C=O)o2)cc1` was tested, and the activity change, negative = inhibition was inactive: 0.318%.
In the case of `COC(=O)c1cc(OC)c(OC)cc1NC(=O)Cn1nnc(-c2ccccc2Cl)n1`, the activity change, negative = inhibition is reported as inactive: 0.277%.
`Cc1ccc([N+](=O)[O-])cc1N=C(c1cccc([N+](=O)[O-])c1)N1CCOCC1` was tested, and the activity change, negative = inhibition was inactive: 0.611%.
With `O=[N+]([O-])c1cc(Cl)ccc1Nc1ccccc1` the activity change, negative = inhibition was inactive: 0.735%.
In the case of `O=C1c2ccccc2C(=O)N1CCC(c1ccccc1)c1ccco1` (configuration not stated), the activity change, negative = inhibition is reported as inactive: -0.452%.
`Cc1ccccc1NS(=O)(=O)c1ccc(C(=O)NCC(c2ccco2)N(C)C)cc1` (configuration not stated) was tested, and the activity change, negative = inhibition was inactive: 0.678%.
`CCCc1nn2c(=O)cc(CSCC(=O)Nc3ccccc3)nc2s1` was tested, and the activity change, negative = inhibition was inactive: 0.766%.
In the case of `Cc1cc(C)c(OCC(=O)Nc2ccc(NC(=O)c3ccco3)cc2)c([N+](=O)[O-])c1`, the activity change, negative = inhibition is reported as inactive: 0.897%.
For `CCOC(=O)CCCCCC(=O)Nc1ccc2c(c1)CC(=O)N([C@H](C)CO)C[C@@H](C)[C@H](CN(C)Cc1ccc3c(c1)OCO3)O2`, the activity change, negative = inhibition was inactive: -0.945%.
For `O=C(O)c1ccnc(C(=O)O)c1`, the activity change, negative = inhibition was inactive: -0.152%.
With `C[C@@H]1CN([C@@H](C)CO)C(=O)c2cc(NC(=O)Nc3ccc4c(c3)OCO4)ccc2O[C@H]1CN(C)S(=O)(=O)c1ccc(F)cc1` the activity change, negative = inhibition was inactive: -0.312%.
`COc1ccc2c(c1)OC[C@H]1[C@H]2N2C(=O)CNC(=O)[C@@]2(C)[C@H]1c1ccccc1` was tested, and the activity change, negative = inhibition was inactive: -0.581%.
With `CCc1ccc(NC(=O)CSc2nnc(CNC(=O)c3c(F)cccc3Cl)o2)cc1` the activity change, negative = inhibition was inactive: 0.0315%.
`N#CC1(NC(=O)Cn2ncc(Cl)c(Cl)c2=O)CCCCC1` was tested, and the activity change, negative = inhibition was inactive: -0.54%.
`CC(OC(=O)CN1C(=O)COc2ccccc21)C(=O)NCc1ccc(F)cc1` (configuration not stated) was tested, and the activity change, negative = inhibition was inactive: 0.76%.
In the case of `C[C@H](N)c1nnc(SCC(=O)N(C)C)o1`, the activity change, negative = inhibition is reported as inactive: -0.256%.
In the case of `O=C(N1CCN(c2ccccc2)CC1)C12CC3CC(CC(C3)C1)C2`, the activity change, negative = inhibition is reported as inactive: -0.173%.
With `CCN(C[C@H]1N[C@@](C)(C(=O)OC)[C@H]2C(=O)N(Cc3ccccc3)C(=O)[C@@H]12)C(=O)Nc1ccc(F)cc1` the activity change, negative = inhibition was inactive: -0.653%.
With `Cc1cccc2cc(C#N)c(SCCN3CCCCC3)nc12` the activity change, negative = inhibition was inactive: -0.21%.
With `OC(COc1ccc2ccccc2c1Br)Cn1cnc(-c2ccccc2)c1` (configuration not stated) the activity change, negative = inhibition was inactive: -0.011%.
In the case of `O=C(O)c1ccccc1OCCOc1ccccc1C(=O)O`, the activity change, negative = inhibition is reported as inactive: 0.223%.
`CCC/C(=N\NC(=O)c1csc(C)c1C)c1cccs1` was tested, and the activity change, negative = inhibition was inactive: 0.368%.
In the case of `COc1ccc(CCNC(=O)COC(=O)c2ccc(Br)o2)cc1`, the activity change, negative = inhibition is reported as inactive: 0.207%.
`Cc1cnc(NC(=O)c2ccc(-c3nc4ccccc4s3)o2)s1` was tested, and the activity change, negative = inhibition was inactive: 0.774%.
In the case of `CCCCn1c(N)c(N(CC)C(=O)c2ccco2)c(=O)[nH]c1=O`, the activity change, negative = inhibition is reported as inactive: 0.105%.
In the case of `CCCc1c(NC(=O)Nc2ccc(F)cc2)cnn1-c1ccccc1`, the activity change, negative = inhibition is reported as inactive: 0.184%.
In the case of `O=C(Nc1ccccc1)Nc1ccc(S(=O)(=O)N2CCCCC2)cc1`, the activity change, negative = inhibition is reported as inactive: 0.255%.
With `O=[N+]([O-])c1ccccc1/C=C/C=N/n1c(-c2ccc(Cl)cc2)n[nH]c1=S` the activity change, negative = inhibition was inactive: 0.766%.
With `Cc1ccc(S(=O)(=O)N(C)C[C@@H]2Oc3ccc(NC(=O)Cn4cnnn4)cc3C(=O)N([C@@H](C)CO)C[C@H]2C)cc1` the activity change, negative = inhibition was inactive: 0.0257%.
